Laboratory results: paper PMC10009235
The exact form of at least one protein or probe is not confirmed. Where cells or extracts were used, other partners may take part.

Legend:
VEZF1 [1] = assay: competition with a labelled probe; settings: unlabeled 2-, 4-, LightShift Chemiluminescent EMSA kit (Pierce) with HEK-293T nuclear extract, buffer composition, pH and temperature not stated, protein in an extract
VEZF1 [2] = assay: EMSA with antibody interference; settings: VEZF1 antibody reduces the shift; LightShift Chemiluminescent EMSA kit (Pierce) with HEK-293T nuclear extract; buffer composition, pH and temperature not …; protein in an extract

Sequence: CCCTCGCCGGCCCCCGCCCCTCCG (double strand) [Flt1 Wt-L-Oligo3]
- binding result (VEZF1 [1]; 8-fold excess vs labeled Oligo3, dose-dependent decrease): binds
- binding result (VEZF1 [2]): binds

Sequence: GCGGATGAGGGGTGGGGGACCCCTTGACGT (double strand) [Flt1 Wt-L-Oligo4]
- binding result (VEZF1 [1]; 8-fold excess vs labeled Oligo4, dose-dependent decrease): binds
- binding result (VEZF1 [2]): binds
